Data reported in doi:10.1101/2020.04.22.055343.

By UniProt entry, the sequences of proteins in these tests, tags left out. Where a name states a change or a piece, a line headed by the entry shows the natural chain unless it says otherwise.
UniProt P35637: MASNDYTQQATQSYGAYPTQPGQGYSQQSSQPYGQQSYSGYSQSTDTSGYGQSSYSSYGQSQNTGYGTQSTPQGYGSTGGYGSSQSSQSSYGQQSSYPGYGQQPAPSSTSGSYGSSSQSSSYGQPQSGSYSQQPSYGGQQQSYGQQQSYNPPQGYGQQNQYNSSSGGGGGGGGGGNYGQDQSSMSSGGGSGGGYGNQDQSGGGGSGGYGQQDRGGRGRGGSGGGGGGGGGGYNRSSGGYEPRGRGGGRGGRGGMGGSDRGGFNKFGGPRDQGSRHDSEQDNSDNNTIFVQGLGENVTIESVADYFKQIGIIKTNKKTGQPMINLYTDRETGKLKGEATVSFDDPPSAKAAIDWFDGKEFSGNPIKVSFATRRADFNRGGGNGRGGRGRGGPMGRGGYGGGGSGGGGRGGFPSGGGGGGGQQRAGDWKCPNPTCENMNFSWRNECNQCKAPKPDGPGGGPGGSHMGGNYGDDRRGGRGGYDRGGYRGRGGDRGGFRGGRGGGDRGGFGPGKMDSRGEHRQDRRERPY
UniProt P13010: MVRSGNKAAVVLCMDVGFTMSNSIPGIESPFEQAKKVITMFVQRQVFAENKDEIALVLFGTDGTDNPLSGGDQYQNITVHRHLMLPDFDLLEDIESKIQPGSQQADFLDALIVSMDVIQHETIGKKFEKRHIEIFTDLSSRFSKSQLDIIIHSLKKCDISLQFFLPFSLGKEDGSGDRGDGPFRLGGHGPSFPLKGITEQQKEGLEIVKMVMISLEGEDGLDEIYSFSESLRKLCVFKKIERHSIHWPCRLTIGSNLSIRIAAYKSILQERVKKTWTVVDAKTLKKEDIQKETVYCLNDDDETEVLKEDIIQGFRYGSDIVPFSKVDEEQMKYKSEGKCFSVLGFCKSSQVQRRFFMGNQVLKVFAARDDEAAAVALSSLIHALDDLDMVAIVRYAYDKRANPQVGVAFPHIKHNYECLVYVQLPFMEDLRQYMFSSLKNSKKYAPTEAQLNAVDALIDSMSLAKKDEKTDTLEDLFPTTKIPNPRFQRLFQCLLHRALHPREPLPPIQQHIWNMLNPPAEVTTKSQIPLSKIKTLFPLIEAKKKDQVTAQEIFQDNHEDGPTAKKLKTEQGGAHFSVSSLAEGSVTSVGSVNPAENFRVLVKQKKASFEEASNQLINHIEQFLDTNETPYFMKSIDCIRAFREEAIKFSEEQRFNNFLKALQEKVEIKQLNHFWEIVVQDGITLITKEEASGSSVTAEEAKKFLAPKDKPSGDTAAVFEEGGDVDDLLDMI
UniProt P09874: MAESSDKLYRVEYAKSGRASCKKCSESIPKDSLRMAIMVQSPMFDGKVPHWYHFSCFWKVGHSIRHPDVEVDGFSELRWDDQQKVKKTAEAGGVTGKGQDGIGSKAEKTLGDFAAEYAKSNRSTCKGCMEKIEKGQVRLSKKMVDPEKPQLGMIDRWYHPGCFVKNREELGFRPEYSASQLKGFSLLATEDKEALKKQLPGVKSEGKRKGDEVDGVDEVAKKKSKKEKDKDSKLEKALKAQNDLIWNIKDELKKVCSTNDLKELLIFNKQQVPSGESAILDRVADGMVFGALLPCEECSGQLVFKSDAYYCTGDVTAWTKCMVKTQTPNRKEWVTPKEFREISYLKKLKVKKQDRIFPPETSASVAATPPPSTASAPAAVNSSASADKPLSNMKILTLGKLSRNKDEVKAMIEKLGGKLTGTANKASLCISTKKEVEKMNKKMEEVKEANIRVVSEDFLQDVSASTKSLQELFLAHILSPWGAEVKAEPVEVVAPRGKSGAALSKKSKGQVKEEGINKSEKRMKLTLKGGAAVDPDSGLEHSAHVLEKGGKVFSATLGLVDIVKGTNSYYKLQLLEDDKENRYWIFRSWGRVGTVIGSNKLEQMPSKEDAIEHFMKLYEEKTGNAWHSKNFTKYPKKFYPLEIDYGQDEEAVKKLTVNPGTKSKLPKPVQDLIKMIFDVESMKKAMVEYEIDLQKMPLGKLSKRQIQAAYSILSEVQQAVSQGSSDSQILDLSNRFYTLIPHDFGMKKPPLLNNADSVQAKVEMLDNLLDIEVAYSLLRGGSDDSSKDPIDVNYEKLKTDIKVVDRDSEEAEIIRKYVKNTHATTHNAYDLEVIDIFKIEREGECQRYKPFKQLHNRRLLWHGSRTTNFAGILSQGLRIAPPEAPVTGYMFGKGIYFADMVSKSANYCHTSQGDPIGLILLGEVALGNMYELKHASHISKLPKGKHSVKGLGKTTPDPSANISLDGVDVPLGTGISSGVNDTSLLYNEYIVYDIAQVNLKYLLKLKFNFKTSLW
UniProt P28340: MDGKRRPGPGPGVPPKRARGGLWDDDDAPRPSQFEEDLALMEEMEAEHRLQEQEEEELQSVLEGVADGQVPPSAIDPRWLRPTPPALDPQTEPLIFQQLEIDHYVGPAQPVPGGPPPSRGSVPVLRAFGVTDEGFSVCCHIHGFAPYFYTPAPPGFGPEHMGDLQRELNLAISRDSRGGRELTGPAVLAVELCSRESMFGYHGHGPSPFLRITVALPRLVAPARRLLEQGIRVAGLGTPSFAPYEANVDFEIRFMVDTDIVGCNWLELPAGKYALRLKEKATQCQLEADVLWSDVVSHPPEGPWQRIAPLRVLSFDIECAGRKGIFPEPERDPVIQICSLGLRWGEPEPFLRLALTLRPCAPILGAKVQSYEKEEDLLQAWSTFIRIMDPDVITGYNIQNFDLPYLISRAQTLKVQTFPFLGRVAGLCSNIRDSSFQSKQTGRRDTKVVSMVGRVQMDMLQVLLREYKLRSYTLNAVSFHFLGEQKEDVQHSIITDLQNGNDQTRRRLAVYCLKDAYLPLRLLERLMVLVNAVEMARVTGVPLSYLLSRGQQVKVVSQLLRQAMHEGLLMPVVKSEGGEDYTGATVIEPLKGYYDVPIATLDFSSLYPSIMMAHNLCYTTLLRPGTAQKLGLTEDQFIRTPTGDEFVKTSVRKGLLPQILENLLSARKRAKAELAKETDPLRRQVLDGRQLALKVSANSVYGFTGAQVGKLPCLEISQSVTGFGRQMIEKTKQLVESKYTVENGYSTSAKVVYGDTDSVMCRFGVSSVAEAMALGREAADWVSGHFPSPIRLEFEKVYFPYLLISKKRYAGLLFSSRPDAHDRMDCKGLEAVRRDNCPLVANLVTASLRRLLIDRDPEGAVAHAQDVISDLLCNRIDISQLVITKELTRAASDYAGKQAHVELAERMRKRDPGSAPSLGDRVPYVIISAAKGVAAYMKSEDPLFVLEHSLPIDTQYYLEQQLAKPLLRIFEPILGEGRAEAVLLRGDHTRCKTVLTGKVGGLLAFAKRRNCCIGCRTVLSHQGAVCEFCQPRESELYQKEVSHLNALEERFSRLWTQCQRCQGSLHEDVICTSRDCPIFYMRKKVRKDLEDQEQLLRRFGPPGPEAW
UniProt P11387: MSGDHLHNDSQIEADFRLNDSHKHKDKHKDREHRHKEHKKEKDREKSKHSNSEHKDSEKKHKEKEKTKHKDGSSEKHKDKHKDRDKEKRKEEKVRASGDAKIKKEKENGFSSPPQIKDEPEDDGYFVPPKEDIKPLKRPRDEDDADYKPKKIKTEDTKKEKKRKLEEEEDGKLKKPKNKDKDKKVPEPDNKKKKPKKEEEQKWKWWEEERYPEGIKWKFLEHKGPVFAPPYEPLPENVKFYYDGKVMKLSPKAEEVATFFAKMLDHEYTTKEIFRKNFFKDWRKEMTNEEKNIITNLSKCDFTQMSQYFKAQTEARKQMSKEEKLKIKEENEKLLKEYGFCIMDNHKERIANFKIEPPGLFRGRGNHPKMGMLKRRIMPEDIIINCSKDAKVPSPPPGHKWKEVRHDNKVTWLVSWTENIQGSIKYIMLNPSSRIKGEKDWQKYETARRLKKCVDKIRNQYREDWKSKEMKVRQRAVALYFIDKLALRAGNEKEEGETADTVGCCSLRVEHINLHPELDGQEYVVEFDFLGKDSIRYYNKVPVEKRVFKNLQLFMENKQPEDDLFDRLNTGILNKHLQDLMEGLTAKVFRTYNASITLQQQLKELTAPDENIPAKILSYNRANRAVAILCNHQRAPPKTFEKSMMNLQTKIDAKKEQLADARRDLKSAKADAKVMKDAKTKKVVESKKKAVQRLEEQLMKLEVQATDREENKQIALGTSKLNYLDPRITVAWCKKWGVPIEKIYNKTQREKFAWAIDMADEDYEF
UniProt P12956: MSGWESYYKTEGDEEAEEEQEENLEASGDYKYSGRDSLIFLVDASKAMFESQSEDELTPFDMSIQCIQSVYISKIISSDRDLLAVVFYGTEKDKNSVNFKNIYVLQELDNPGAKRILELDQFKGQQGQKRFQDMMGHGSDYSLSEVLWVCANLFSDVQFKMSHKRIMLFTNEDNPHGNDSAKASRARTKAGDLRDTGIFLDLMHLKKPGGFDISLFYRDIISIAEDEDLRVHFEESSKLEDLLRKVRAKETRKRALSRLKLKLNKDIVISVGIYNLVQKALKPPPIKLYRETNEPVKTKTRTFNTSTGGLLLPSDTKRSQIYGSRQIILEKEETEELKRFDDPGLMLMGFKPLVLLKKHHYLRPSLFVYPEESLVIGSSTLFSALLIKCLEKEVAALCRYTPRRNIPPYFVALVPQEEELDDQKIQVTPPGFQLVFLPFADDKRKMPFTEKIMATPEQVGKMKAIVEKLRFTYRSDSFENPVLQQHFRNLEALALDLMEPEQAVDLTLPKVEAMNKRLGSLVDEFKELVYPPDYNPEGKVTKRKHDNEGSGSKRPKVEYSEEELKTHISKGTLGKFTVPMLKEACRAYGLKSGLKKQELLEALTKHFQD
UniProt P12004: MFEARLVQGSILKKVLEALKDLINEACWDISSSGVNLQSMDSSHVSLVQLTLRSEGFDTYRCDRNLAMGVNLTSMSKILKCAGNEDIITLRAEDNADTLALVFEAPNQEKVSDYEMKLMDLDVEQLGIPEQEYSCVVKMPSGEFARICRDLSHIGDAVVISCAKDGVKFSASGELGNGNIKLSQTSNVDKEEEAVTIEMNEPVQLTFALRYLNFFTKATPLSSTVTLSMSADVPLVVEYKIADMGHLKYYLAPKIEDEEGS
UniProt P27695: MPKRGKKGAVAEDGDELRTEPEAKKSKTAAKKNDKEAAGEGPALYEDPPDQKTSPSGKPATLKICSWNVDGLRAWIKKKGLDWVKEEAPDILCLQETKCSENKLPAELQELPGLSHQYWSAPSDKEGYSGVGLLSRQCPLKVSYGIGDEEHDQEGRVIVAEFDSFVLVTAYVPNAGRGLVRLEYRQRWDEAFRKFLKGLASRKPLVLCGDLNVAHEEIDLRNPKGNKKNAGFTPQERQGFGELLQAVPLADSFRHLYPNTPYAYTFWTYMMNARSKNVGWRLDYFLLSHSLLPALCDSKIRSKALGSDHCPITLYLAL

Molecular target: Fused in sarcoma (FUS) (human (endogenous in U-2 OS)) (UniProt P35637)
Assay: affinity purification with mass spectrometry

binding	Substance
binds	Ku80 (from UniProt P13010 1-732)
binds	PARP1 (from UniProt P09874 1-1014)
binds	DNA polymerase δ (POLδ or POLD1) (from UniProt P28340 1-1107)
binds	TOP1 (from UniProt P11387 1-765)
binds	Ku70 (from UniProt P12956 1-609)
binds	PCNA (from UniProt P12004 1-261)
binds	DNA-PK (from UniProt P78527 1-4128)
binds	APEX1 (from UniProt P27695 1-318) (other; other documents disagree on this pair)

These are yes or no findings as the source states them, for the method shown. Binding seen in cells or lysates may run through a third protein. A yes stands for co-enrichment or nearness to the bait. Other partners may have been found.
